Results published in US20120237566A1, “INHIBITING STOMACH-ACID RELEASE, REDUCING INFLAMMATION AND PREVENTING AND TREATING CANCER: COMPOSITIONS AND METHODS OF USE” (Venture Isles, LLC, priority 2011, published 2012).

Tested on: sulfhydryl (—SH) groups within the gastric H, K-ATPase system
Assay: quantitation of sulfhydryl groups during Zn inhibition
Assay type: binding

In the case of [Zn+2] [Zn, Zinc], the “critical —SH groups involved in Zn inhibition” value is reported as “about 3 per mole of the enzyme” and the “sulfhydryl (—SH) group bound” value (Zn at 2 μM) is reported as “about 16 n Moles per mg of membrane pro”.
